Assay results: patent US6469195B1, “2-phenoxyphenylacetic acid derivatives, method and intermediate products for the production thereof, their use, and agents containing the same for combating fungicidal pests” (BASF Aktiengesellschaft, priority 1998, dated 2002)
Some entries share one result that the patent states for a list of compounds.

Tests used:
[1] = test system: powdery mildew of wheat (Erysiphe graminis forma specialis tritici); experiment: Activity against powdery mildew of wheat (protective spray, greenhouse); type: in vivo; conditions: 250 ppm active compound; wheat seedlings cv. Fruhgold; dusted with spores 24 hours after spraying; assessed visually after 7 days; untreated plants 90% infection
Plasmopara viticola = experiment: Activity against Plasmopara viticola (persistency test on grapevines); type: in vivo; conditions: 16 ppm active compound; grapevines cv. Müller-Thurgau; inoculated 7 days after spraying; assessed visually; untreated plants 90% infection

Structure (SMILES)	infection (% infection of the total leaf area) [1]	infection (extent of the infection on the undersides of the leaves) (Plasmopara viticola)
CNC(=O)/C(=N/OC)c1ccccc1Oc1cccc(-c2ccc(C(F)(F)F)cc2)c1 [I-7]	at most 5%	at most 5%
CNC(=O)/C(=N/OC)c1ccccc1Oc1cccc(-c2ccc(C)cc2F)c1 [I-8]	at most 5%	at most 5%
